These are yes or no findings as the source states them, for the method shown. Binding seen in cells or lysates may run through a third protein. For some assays here: Binding can be weak; no strength is given. For some assays here: Tags and fused reporters may be left off the sequences shown.
T1: porcine RIG-I, HA-tagged (pRIG-I-HA) (porcine (Sus scrofa)) (UniProt Q9GLV6)
T1 sequence: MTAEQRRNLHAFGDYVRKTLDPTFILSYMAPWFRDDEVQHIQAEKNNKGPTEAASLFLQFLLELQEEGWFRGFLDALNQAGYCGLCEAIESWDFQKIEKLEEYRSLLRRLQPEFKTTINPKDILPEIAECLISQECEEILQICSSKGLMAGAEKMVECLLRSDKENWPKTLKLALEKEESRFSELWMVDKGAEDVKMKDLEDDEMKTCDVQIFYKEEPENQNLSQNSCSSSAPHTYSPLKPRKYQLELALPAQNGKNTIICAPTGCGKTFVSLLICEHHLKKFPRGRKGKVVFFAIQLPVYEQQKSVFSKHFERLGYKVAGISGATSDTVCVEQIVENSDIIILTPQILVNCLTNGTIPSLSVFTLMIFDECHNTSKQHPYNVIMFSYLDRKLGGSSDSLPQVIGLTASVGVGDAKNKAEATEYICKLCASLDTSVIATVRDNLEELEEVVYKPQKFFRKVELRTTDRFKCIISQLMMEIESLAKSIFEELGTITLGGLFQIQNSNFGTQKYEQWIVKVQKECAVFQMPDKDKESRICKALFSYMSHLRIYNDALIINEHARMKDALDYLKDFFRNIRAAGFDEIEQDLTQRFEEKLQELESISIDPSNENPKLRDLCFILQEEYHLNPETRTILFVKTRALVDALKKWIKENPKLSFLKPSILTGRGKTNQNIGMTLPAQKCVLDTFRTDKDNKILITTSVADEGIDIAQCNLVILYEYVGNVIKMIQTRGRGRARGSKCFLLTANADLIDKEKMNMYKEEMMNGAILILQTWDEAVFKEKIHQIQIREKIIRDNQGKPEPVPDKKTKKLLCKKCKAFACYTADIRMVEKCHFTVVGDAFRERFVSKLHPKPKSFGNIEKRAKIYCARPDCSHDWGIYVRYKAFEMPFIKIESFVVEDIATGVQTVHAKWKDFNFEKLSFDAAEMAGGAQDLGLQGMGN


Tests used:
[1] = biological target: porcine MDA5, HA-tagged (pMDA5-HA) (porcine (Sus scrofa)); experiment: condition: only without cell activation (no EMCV infection); co-IP; 293T cells co-transfected for 24 h, not activated; lysates immunoprecipitated with anti-HA mAb; Western blot
[2] = biological target: T1, porcine RIG-I, HA-tagged (pRIG-I-HA) (porcine (Sus scrofa)); experiment: as above
[3] = biological target: T1, porcine RIG-I, HA-tagged (pRIG-I-HA) (porcine (Sus scrofa)); experiment: co-IP; 293T cells co-transfected for 24 h, not activated; lysates immunoprecipitated with anti-HA mAb; Western blot
[4] = biological target: porcine LGP2, FLAG-tagged (pLGP2-FLAG) (porcine (Sus scrofa)); experiment: condition: only without cell activation (no EMCV infection); co-IP; 293T cells co-transfected for 24 h, not infected (no cell activation); lysed in RIPA buffer; immunoprecipitated with anti-FLAG mAb and Protein A/G agarose; Western blot
[5] = biological target: porcine LGP2, FLAG-tagged (pLGP2-FLAG) (porcine (Sus scrofa)); experiment: co-IP; 293T cells co-transfected for 24 h, then infected with 0.01 MOI EMCV for 8 h; lysed in RIPA buffer; immunoprecipitated with anti-FLAG mAb and Protein A/G agarose; Western blot
[6] = biological target: porcine MDA5, FLAG-tagged (pMDA5-FLAG) (porcine (Sus scrofa)); experiment: co-IP; 293T cells co-transfected for 24 h, not infected (no cell activation); lysed in RIPA buffer; immunoprecipitated with anti-FLAG mAb and Protein A/G agarose; Western blot

Row | binding [4] | binding [5] | Molecule | other results
1 | – | – | porcine LGP2, FLAG-tagged (pLGP2-FLAG) (from UniProt A0A2S1PVW1) | binding [1]: no binding; binding [2]: no binding
2 | – | – | porcine MDA5, FLAG-tagged (pMDA5-FLAG) | binding [3]: no binding
3 | no binding | binds | porcine MDA5, HA-tagged (pMDA5-HA) (from UniProt A0A2S1PVX7) | –
4 | no binding | binds | porcine RIG-I, HA-tagged (pRIG-I-HA) (protein, UniProt Q9GLV6 1-940) MTAEQRRNLHAFGDYVRKTLDPTFILSYMAPWFRDDEVQHIQAEKNNKGPTEAASLFLQFLLELQEEGWFRGFLDALNQAGYCGLCEAIESWDFQKIEKLEEYRSLLRRLQPEFKTTINPKDILPEIAECLISQECEEILQICSSKGLMAGAEKMVECLLRSDKENWPKTLKLALEKEESRFSELWMVDKGAEDVKMKDLEDDEMKTCDVQIFYKEEPENQNLSQNSCSSSAPHTYSPLKPRKYQLELALPAQNGKNTIICAPTGCGKTFVSLLICEHHLKKFPRGRKGKVVFFAIQLPVYEQQKSVFSKHFERLGYKVAGISGATSDTVCVEQIVENSDIIILTPQILVNCLTNGTIPSLSVFTLMIFDECHNTSKQHPYNVIMFSYLDRKLGGSSDSLPQVIGLTASVGVGDAKNKAEATEYICKLCASLDTSVIATVRDNLEELEEVVYKPQKFFRKVELRTTDRFKCIISQLMMEIESLAKSIFEELGTITLGGLFQIQNSNFGTQKYEQWIVKVQKECAVFQMPDKDKESRICKALFSYMSHLRIYNDALIINEHARMKDALDYLKDFFRNIRAAGFDEIEQDLTQRFEEKLQELESISIDPSNENPKLRDLCFILQEEYHLNPETRTILFVKTRALVDALKKWIKENPKLSFLKPSILTGRGKTNQNIGMTLPAQKCVLDTFRTDKDNKILITTSVADEGIDIAQCNLVILYEYVGNVIKMIQTRGRGRARGSKCFLLTANADLIDKEKMNMYKEEMMNGAILILQTWDEAVFKEKIHQIQIREKIIRDNQGKPEPVPDKKTKKLLCKKCKAFACYTADIRMVEKCHFTVVGDAFRERFVSKLHPKPKSFGNIEKRAKIYCARPDCSHDWGIYVRYKAFEMPFIKIESFVVEDIATGVQTVHAKWKDFNFEKLSFDAAEMAGGAQDLGLQGMGN | binding [6]: no binding

Reference: article PMC8169967
